# Several values for one entry are separate records, joined by “and”; a condition that tells them apart may be missing. Identical values can stand only once. This is one part of the list. The main result of the screen is listed elsewhere. These columns were measured beside it and carry no call. The list favours compounds with an active or inconclusive main result. Words in brackets tell the shape of the fitted curve; partial curves, single points and poor fits give uncertain potencies.
# Assay: qHTS Assay to Find Inhibitors of Chronic Active B-Cell Receptor Signaling
# Conditions: ABC-DLBCL IkBa-CBG/CBR reporter, luminescence ratio (green luciferase fused to IkBa over red control in TMD8 lymphoma cells), 4 h
# Outline: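 TMD8 human ABC-DLBCL cells with doxycycline-inducible IκBα–green luciferase fusion and unfused red luciferase, in 0.5% FBS medium; compounds up to 46 uM, 4 h at 37C. Green/red luminescence ratio, filter-overlap corrected, fitted to concentration-response curves.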
# [1] = measured here: CBR red luminescence, cell number
# [2] = measured here: IkBa-CBG green luminescence
Compound,AC50 [1],AC50 [2]
CCOC(=O)c1ccc(-c2c(C)cc3oc(=O)cc(-c4ccccc4)c3c2C)cc1,"2.59 µM [rising, full curve, poor fit]",
COc1cc(OC)c2c(-c3cccc(-c4cccc(N)c4)c3)cc(=O)oc2c1,"4.11 µM [rising, full curve, poor fit]","18.4 µM [falling, partial curve]"
COc1ccc(NC(=O)C(=O)NCC(c2ccco2)N2CCc3ccccc32)cc1 (centres undefined),"0.0517 µM [falling, full curve, poor fit]",
CCC1CCCCN1CCCNC(=O)c1ccc2nc(N3CCC(C)CC3)sc2c1 (centres undefined),"0.316 µM [falling, full curve, poor fit]",
CCC1=C(OC(=O)N(CC)CC)N2C(=O)OC(=NCC(=O)OC)[C@]2(Cc2ccccc2)[C@H]2C1=CC[C@H]1C(=O)N(c3ccccc3)C(=O)[C@H]12,"3.98 µM [falling, partial curve, poor fit]",
CCOC(=O)c1c(NS(=O)(=O)Cc2ccccc2)sc2c1CCCC2,"1.84 µM [rising, partial curve, poor fit]",
CCCCC(=O)Nc1ccccc1C(C)C,"22.4 µM [rising, partial curve, poor fit]",
CCOC(=O)c1c(NC(=O)Cn2nnc3ccccc32)sc2c1CCC(C)C2 (centres undefined),"12.6 µM [falling, partial curve]",
O=C(Cc1cccs1)Nc1ccccc1NC(=O)Cc1cccs1,"11.6 µM [rising, partial curve, poor fit]",
O=C(c1ccc(S(=O)(=O)Cc2cc(F)ccc2F)c([N+](=O)[O-])c1)N1CCCCC1,"2.59 µM [falling, full curve, poor fit]",
CCOC(=O)c1nn(-c2ccc3ccccc3c2)cc1O,"11.2 µM [falling, single point]",
O=C(Nc1ccc(N2CCCCC2)c(Cl)c1)c1ccc2c(c1)OCCO2,"14.6 µM [rising, partial curve]",
O=C(Nc1scc(-c2ccccc2)c1C(=O)O)c1ccco1,"14.6 µM [falling, partial curve]",
O=C(Nc1ccc(S(=O)(=O)NCc2ccccc2)cc1)Nc1ccc2c(c1)OCO2,"25.9 µM [rising, partial curve, poor fit]",
CCOc1ccc(C2=CC(c3cc(Br)ccc3F)n3ncnc3N2)cc1Cl (centres undefined),"35.5 µM [falling, single point]",
ClCC1NCC(c2ccccc2Cl)c2c1[nH]c1ccccc21 (centres undefined),"17.8 µM [falling, partial curve, poor fit]",
COc1ccccc1-c1cc(C(=O)Nc2ccccc2SC)no1,"0.0282 µM [falling, full curve, poor fit]",
C=CCn1c2ccccc2c2nnc(SCc3ccc4nonc4c3)nc21,"6.51 µM [falling, single point]",
COc1ccccc1C(=O)N/N=C(\C)CC(=O)Nc1ccc(Nc2ccccc2)cc1,"0.794 µM [falling, full curve, poor fit]",
CC[C@H](CO)Nc1nc(Nc2cccc(Cl)c2)c2ncn(C(C)C)c2n1,"2.24 µM [falling, partial curve, poor fit]",
CC1CCc2[nH]c3ccc(C(=O)O)cc3c2C1 (centres undefined),"0.447 µM [falling, full curve, poor fit]",

Compound,AC50 [1],AC50 [2]
Cn1c(CCCNC(=O)c2ccccc2)nc2ccccc21,"23.1 µM [rising, partial curve, poor fit]",
O=c1oc(C2(O)CCCCC2)cc2ccc(Br)cc12,"2.91 µM [rising, partial curve, poor fit]",
CSc1cccc(CN2CCC(CO)(Cc3cccc(C(F)(F)F)c3)CC2)c1,"11.2 µM [falling, partial curve, poor fit]",
CCN(C(=O)COC(=O)c1cc2c(s1)CCCC2)c1c(N)n(Cc2ccccc2)c(=O)[nH]c1=O,"1.16 µM [rising, partial curve, poor fit]",
COc1ccc(/C=N/NC(=O)c2cccc(NC(C)=O)c2)c(C(=O)O)c1OC,"7.08 µM [falling, partial curve]",
COc1ccccc1NC(=O)Nc1nc(CC(=O)N2CCN(c3ccc(F)cc3)CC2)cs1,"2.06 µM [rising, partial curve]",
CCC(=O)Nc1ccccc1C(=O)OCC(=O)Nc1ccc(S(N)(=O)=O)cc1,"11.6 µM [falling, single point]",
O=C(CSc1nc2ccccc2n1-c1ccccc1)Nc1ncc(Cl)cc1Cl,"18.4 µM [falling, partial curve]",
Cc1ccc(-n2c(Cl)c(Cl)nc(Cl)c2=O)cc1,"5.17 µM [falling, full curve]","4.61 µM [rising, full curve, poor fit]"
CCOC(=O)C1=C(C)N(C)C(=O)NC1c1ccc(C)s1 (centres undefined),"11.6 µM [rising, partial curve, poor fit]",
COc1ccc(-c2c(C)nn3c(Cl)c(C)c(C)nc23)cc1,"3.16 µM [rising, partial curve, poor fit]",
COc1ccc(CC(=O)Nc2ccc(C(=O)NCC(C)C)cc2)cc1,"7.08 µM [rising, full curve]",
Cc1ccc(S(=O)(=O)N2CCOCC2)cc1NC(=O)C1=NN(c2ccccc2)C(=O)CC1,"2.51 µM [rising, partial curve, poor fit]",
O=C(N/N=C/C1CC=CCC1)c1ccccc1O (centres undefined),"3.16 µM [falling, full curve]",
O=C(CSc1cccc2cccnc12)NCc1ccco1,"5.62 µM [rising, single point]",
CCN(CC)S(=O)(=O)c1cccc(N=Nc2sc(N)nc2C)c1,,"8.91 µM [falling, partial curve, poor fit]"
CCN(CC(=O)NCc1ccc(F)cc1)C(=O)COc1ccc2ccccc2c1,"13 µM [falling, partial curve]",
COc1ccc(C)cc1N(CC(=O)N/N=C/c1ccc2c(c1)OCO2)S(C)(=O)=O,,"12.6 µM [rising, partial curve, poor fit]"
CCc1ccccc1NC(=O)COc1cccc(-n2cnnn2)c1,"11.2 µM [falling, partial curve, poor fit]",
CCOC(=O)c1sc(NC(=O)c2cccc(S(=O)(=O)N3CCN(C)CC3)c2)cc1C,"22.4 µM [falling, partial curve, poor fit]",
COC(=O)c1ccc(/C=N/NC(=O)c2ccccc2Cl)cc1,"9.2 µM [falling, partial curve]",

Compound,AC50 [1],AC50 [2]
COc1ccc(OC)c(NC(=O)c2ccc(NC3=NC4CS(=O)(=O)CC4S3)cc2)c1 (centres undefined),"0.891 µM [rising, full curve]",
O=C(C[n+]1ccccc1)c1ccc(NC(=O)c2ccccc2)cc1,"8.91 µM [falling, single point]",
O=C(Nc1ccc(N2CCCC2)c(Cl)c1)c1ccccc1[N+](=O)[O-],"2.31 µM [falling, partial curve, poor fit]",
CCOc1cc(C(=O)OCC(=O)Nc2ccc(Cl)cn2)ccc1OCC(=O)N1CCOCC1,"4.11 µM [rising, partial curve, poor fit]",
CCCn1c2ccccc2c2cnn(CC(=O)NCCCN3CCCC(C)C3)c(=O)c21 (centres undefined),"11.2 µM [falling, partial curve, poor fit]",
COc1ccccc1N1C(=O)C(Cl)=C(Nc2ccccc2O)C1=O,"0.794 µM [falling, full curve]",
Cc1ccc(C(=O)Nc2nc(-c3ccc(F)cc3)cs2)o1,"0.112 µM [falling, full curve, poor fit]",
O=C(Oc1ccccc1)c1cc2ccccc2oc1=O,"5.01 µM [rising, full curve, poor fit]",
Cc1cc(C)c(S(=O)(=O)c2ccccc2)c(OC(=O)c2c(F)cccc2Cl)n1,"23.1 µM [falling, single point]",
COc1c(Cl)cnn(-c2ccc(C)cc2)c1=O,"20.6 µM [falling, partial curve]",
O=C(O)C1C2C=CC(C2)C1C(=O)NCCCN1CCOCC1 (centres undefined),"32.6 µM [falling, single point]",
CCC/C(C#Cc1cc(OC)cc(OC)c1)=C1/c2ccccc2C(=O)N1c1ccccc1,"4.11 µM [falling, full curve]",
Cc1ccc(C2(CCNC(C)c3cccs3)CCOC(C(C)C)C2)cc1 (centres undefined),"35.5 µM [falling, single point]",
COc1ccc(N=c2sc3ccccc3n2C)cc1,"16.4 µM [rising, single point]",
Cc1ccc(NC(=O)CN2C(=O)S/C(=C\c3ccccn3)C2=O)cc1C,"4.47 µM [falling, partial curve, poor fit]",
CCC(=O)c1ccc(N2CCN(C(=O)c3cccs3)CC2)c(F)c1,"6.31 µM [rising, single point]",
COC(=O)c1sccc1NC(=O)c1ccc(Br)s1,"25.9 µM [rising, partial curve, poor fit]",
CCOC(=O)c1nnc(-c2ccccc2)nc1Sc1c(Cl)cccc1Cl,"2.31 µM [falling, partial curve, poor fit]",
c1cncc(-c2ccc3ncnc(NCc4cccs4)c3c2)c1,"8.2 µM [rising, partial curve] and 13 µM [rising, partial curve, poor fit]","20.6 µM [falling, partial curve, poor fit] and 10.3 µM [falling, partial curve, poor fit]"
